PubChem BioAssay AID1159584, Peter MacCallum Cancer Centre – 2016
The whole screen tested about 18,000 reagents; this is an unselected part. Further read-outs or replicates are left out here. The record does not give: the amount of reagent, the time to read-out.

Assay: 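Knock-downs that harm CDH1-null cells more than parental MCF10A cells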 (primary screen)
System: human MCF10A breast epithelial cells, parental and CDH1-null
Knock-down reagent: siRNA against human genes
Read-out: 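Cell viability by CellTiter-Glo ATP luminescence, each line scaled to the mean of mock wells across plates, then CDH1-null over parental ratio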
Reading the numbers: CDH1-null / parental viability ratio: higher = CDH1-null cells survive relatively better than parental

gene | CDH1-null / parental viability ratio
KLRC2 (killer cell lectin like receptor C2) | 1.03
CRIPTO (cripto, EGF-CFC family member) | 1.03
SETX (senataxin) | 1
NCBP2 (nuclear cap binding protein subunit 2) | 1.24
PLXNA1 (plexin A1) | 1.05
AIRIM (AFG2 interacting ribosome maturation factor) | 1.4
TTYH2 (tweety family member 2) | 0.86
AHSA2P (activator of HSP90 ATPase homolog 2, pseudogene) | 0.88
KIAA0930 | 1.17
SLX9 (SLX9 ribosome biogenesis factor) | 1.03
DYRK4 (dual specificity tyrosine phosphorylation regulated kinase 4) | 0.88
RUNX3 (RUNX family transcription factor 3) | 1.22
PRF1 (perforin 1) | 0.79
PDK4 (pyruvate dehydrogenase kinase 4) | 0.94
DRC9 (dynein regulatory complex subunit 9) | 0.69
CLEC10A (C-type lectin domain containing 10A) | 1.2
LIPA (lipase A, lysosomal acid type) | 0.78
POLG (DNA polymerase gamma, catalytic subunit) | 0.86
SSPN (sarcospan) | 0.95
NR5A1 (nuclear receptor subfamily 5 group A member 1) | 0.95
ATPSCKMT (ATP synthase c subunit lysine N-methyltransferase) | 1.27
KAZALD1 (Kazal type serine peptidase inhibitor domain 1) | 0.77
SUN3 (Sad1 and UNC84 domain containing 3) | 1.02
DPYD (dihydropyrimidine dehydrogenase) | 0.83
LMF2 (lipase maturation factor 2) | 0.98
LDAH (lipid droplet associated hydrolase) | 1.04
DYRK2 (dual specificity tyrosine phosphorylation regulated kinase 2) | 1.32
DLGAP4 (DLG associated protein 4) | 0.47
TRAPPC4 (trafficking protein particle complex subunit 4) | 1.02
MCMBP (minichromosome maintenance complex binding protein) | 1.04

Quoted from the entries so far for reference:
gene | CDH1-null / parental viability ratio
PRF1 (perforin 1) | 0.79
PDK4 (pyruvate dehydrogenase kinase 4) | 0.94
DRC9 (dynein regulatory complex subunit 9) | 0.69
CLEC10A (C-type lectin domain containing 10A) | 1.2
LIPA (lipase A, lysosomal acid type) | 0.78
POLG (DNA polymerase gamma, catalytic subunit) | 0.86
SSPN (sarcospan) | 0.95

Additional entries:
gene | CDH1-null / parental viability ratio
HSPA9 (heat shock protein family A (Hsp70) member 9) | 0.94
C2orf78 (chromosome 2 open reading frame 78) | 0.94
KLHL4 (kelch like family member 4) | 0.95
H2AJ (H2A.J histone) | 0.97
HTATSF1 (HIV-1 Tat specific factor 1) | 0.68
TEX101 (testis expressed 101) | 0.84
HNRNPDL (heterogeneous nuclear ribonucleoprotein D like) | 1.02
HSDL1 (hydroxysteroid dehydrogenase like 1) | 1.08
KIF6 (kinesin family member 6) | 0.74
EIF5B (eukaryotic translation initiation factor 5B) | 1.3
HIPK3 (homeodomain interacting protein kinase 3) | 0.73
C17orf75 (chromosome 17 open reading frame 75) | 0.82
HNRNPAB (heterogeneous nuclear ribonucleoprotein A/B) | 0.86
CYP7A1 (cytochrome P450 family 7 subfamily A member 1) | 1.04
USP51 (ubiquitin specific peptidase 51) | 0.79
PHLDA2 (pleckstrin homology like domain family A member 2) | 1.34
PIK3CB | 0.9
KIF17 (kinesin family member 17) | 0.93
SCUBE3 (signal peptide, CUB domain and EGF like domain containing 3) | 1.3
PIH1D2 (PIH1 domain containing 2) | 1.28
PDE3B (phosphodiesterase 3B) | 0.83
TIE1 | 1.06
NDOR1 (NADPH dependent diflavin oxidoreductase 1) | 1.04
MAP1LC3B (microtubule associated protein 1 light chain 3 beta) | 1.11
TRIM37 (tripartite motif containing 37) | 0.98
LINC00482 (long independently transcribed non-coding RNA 482) | 0.96
P2RX7 (purinergic receptor P2X 7) | 1.33
EIF4G3 (eukaryotic translation initiation factor 4 gamma 3) | 0.73
EFHC2 (EF-hand domain containing 2) | 0.9
ZFHX4 (zinc finger homeobox 4) | 0.85
SRSF4 (serine and arginine rich splicing factor 4) | 1.15
TFPT (TCF3 fusion partner) | 0.68
PEAK3 (PEAK family member 3) | 1.04
SLC22A1 | 1.07
ATP6V0D2 (ATPase H+ transporting V0 subunit d2) | 0.82
ANKRD53 (ankyrin repeat domain 53) | 0.78
TCEAL6 (transcription elongation factor A like 6) | 1.15
MAGI3 | 0.9
